This assay is described as follows: qHTS Assay for Lipid Storage Modulators in Drosophila S3 Cells.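 As to cell number change: cells counted by Cell Tracker Red CMTPX staining in the red channel.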 The settings on record: BODIPY lipid droplet fluorescence, 18-24 h; for cell number change: measured here: cell count max response, cells fed with added oleic acid. The procedure, abridged: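 Drosophila S3 cells loaded with oleic acid (400 uM, as added) and compounds at several concentrations; lipid droplets imaged by 488-nm laser-scanning cytometry, 500–530 nm intensity and object ratio to cell channel. Percent activity normalized to 20 uM Triacsin C.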
(qHTS replaces the single test concentration by a dilution series.)

[1] abbreviates: measured here: lipid fluorescence (Fed channel) AC50, cells fed with added oleic acid.
Where [2] appears, read: measured here: cell number channel AC50, cells fed with added oleic acid.

Consider 61 compounds from PubChem BioAssay AID2685 (National Center for Advancing Translational Sciences (NCATS), 2010).

The list shows a part of the results. The main result of the screen is listed elsewhere. These columns were measured beside it and carry no call. The list favours compounds with an active or inconclusive main result. Words in brackets tell the shape of the fitted curve; partial curves, single points and poor fits give uncertain potencies.

One may read the AC50 as the midpoint of the concentration-response curve, whichever way the signal moves. High values mean activity only at high concentration, low ones activity at low concentration. With `O=c1[nH]c(C2CCCN(S(=O)(=O)c3ccccc3)C2)nc2c1nnn2Cc1ccccc1` (stereo unspecified), the cell number change stood at 6.19%. Moreover, under setting [1], the AC50 is 1.84 µM [rising, partial curve].

Take `Cc1c(Cl)cccc1NC(=S)NCCCN(C)C`: the cell number change was -15%. Consider `COc1cc(NC(=O)CCCl)cc(-n2cnnn2)c1`, for which the cell number change is -104%. The AC50 under setting [2] is 23.1 µM [falling, single point]. Moreover, the AC50 under setting [1] was 23.1 µM [rising, single point].

For `CC(C)[C@H](NC(=O)c1ccco1)C(=O)OCC(=O)NC12CC3CC(CC(C3)C1)C2`, the cell number change is 7.87%. `CC(=O)Nc1ccc(S(=O)(=O)NC2Cc3ccccc3C2)cc1`: the cell number change was -15.3%. Under setting [2], the AC50 was 0.411 µM [falling, full curve, poor fit]. Regarding `O=C(CSc1ncn[nH]1)N1CCN(c2nnc(-c3ccccc3)c3ccccc23)CC1`, the AC50 is 1.64 µM [rising, partial curve, poor fit] under setting [2] and 4.11 µM [rising, single point] under setting [1]. On to `CCC(C)Sc1nc2c(c(=O)[nH]c(=O)n2C)n1C` (stereo unspecified), for which the cell number change was 9.91%. Also, the AC50 under setting [1] is 0.13 µM [falling, full curve, poor fit]. For the compound `Cc1ccc(S(=O)(=O)N(C)C)cc1NC(=S)NC(=O)C12CC3CC(CC(C3)C1)C2`, the cell number change is -41.6%. Besides, the half-maximal activity concentration (AC50) under setting [2] is 2.06 µM [falling, full curve]. Besides, under setting [1], the AC50 is 3.26 µM [falling, partial curve, poor fit].

For `COc1ccccc1CN1CC(C(=O)N(C)Cc2nc(C)cs2)CCC1=O` (stereo unspecified), the cell number change is -11%. The half-maximal activity concentration (AC50) under setting [1] is 0.058 µM [falling, full curve, poor fit].

Turning to `O=C(CN1CCCCCCC1)Nc1cccc(Cl)c1Cl`, the AC50 reads like this: under setting [2], 0.00517 µM [falling, full curve, poor fit]; under setting [1], 0.00461 µM [falling, full curve]. `C[C@@H]1NC(=O)[C@H](CCC(N)=O)NC(=O)c2cc([N+](=O)[O-])cc(I)c2NCC[C@@H](C(N)=O)NC1=O`: the cell number change is -34.8%. For the same compound, the AC50 under setting [2] was 32.6 µM [falling, single point]. Further, under setting [1], the AC50 is 29.1 µM [falling, single point].

`CCOC(=O)N1CCN(C(=O)c2cc3n(n2)C(C(F)(F)F)CC(c2ccc4c(c2)OCO4)N3)CC1` (stereo unspecified): the cell number change turned out to be 13.8%. Besides, under setting [2], the AC50 is 6.51 µM [rising, partial curve]. Further, the AC50 under setting [1] is 6.51 µM [rising, single point]. Consider `Cc1ccc(-c2nn3nnnc3c3ccccc23)cc1`, for which the cell number change amounted to 22%. Besides, the AC50 under setting [2] is 0.517 µM [rising, full curve, poor fit]. On to `COc1ccc(S(=O)(=O)N/N=C(/C)c2ccncc2)c(OC)c1`, for which the cell number change was found to be 11%. Consider `CS(=O)(=O)c1ccc(Cl)c(NC(=O)CCCSc2ccccc2)c1`, for which the cell number change turned out to be 10.1%.

As to `CN(Cc1cn(Cc2ccccc2)nc1-c1ccc2c(c1)OCO2)Cc1nccn1C`, the cell number change was found to be 12.8%. The AC50 under setting [1] was 0.92 µM [rising, partial curve]. Take `CCCCNC(=O)CN1C(=O)C(CC)Oc2ccc(Cl)cc21` (stereo unspecified): the cell number change is -12.6%. Under setting [1], the AC50 was 1.84 µM [falling, partial curve]. With `Cc1ccc(C(=O)NNC(=O)c2ccc(Br)s2)cc1S(=O)(=O)N1CCOCC1`, the cell number change is 12.1%. In addition, the AC50 under setting [1] was 6.51 µM [rising, partial curve, poor fit].

Turning to `CCOC(=O)c1c(O)c2cc(Cl)ccc2n(CC)c1=O`, the cell number change is -32.3%. Further, under setting [2], the AC50 was 32.6 µM [falling, partial curve, poor fit]. As to `COCCn1nnnc1C(c1cc(OC)ccc1OC)N1CCc2ccccc2C1` (stereo unspecified), the cell number change was determined as 10.1%. Also, the half-maximal activity concentration (AC50) under setting [1] was 8.2 µM [rising, partial curve, poor fit]. For the compound `O=C(c1cc(Cl)ccc1[N+](=O)[O-])N1CCc2ccccc2C1`, the cell number change is -5.94%. Also, the AC50 under setting [1] is 2.31 µM [rising, partial curve, poor fit]. Consider `Cn1c(=O)n(C)c2cc(C(=O)O)ccc21`, for which the cell number change was -2.11%. Turning to `O=C(CC1Nc2ccccc2NC1=O)Nc1ccc2c(c1)OCO2` (stereo unspecified), the cell number change is -16.1%. In addition, under setting [1], the AC50 is 3.26 µM [falling, single point]. As for `CC(CCc1ccc(O)cc1)NCc1ccc(Cl)cc1Cl` (stereo unspecified), the cell number change is -26.7%.

As to `Cc1cc(C)cc(NC(=O)c2cc3c(=O)n4ccccc4nc3s2)c1`, the AC50 under setting [1] is 29.1 µM [falling, single point].

Take `N/C(=N\OC(=O)Oc1ccccc1)c1ccc([N+](=O)[O-])cc1`: the cell number change was -100%. In addition, the AC50 under setting [2] was 7.31 µM [falling, partial curve]. In addition, the AC50 under setting [1] is 0.13 µM [falling, full curve, poor fit]. Regarding `CCN1/C(=C/C(C)=C/c2sc3ccccc3[n+]2CC)Sc2ccccc21`, the cell number change is -97.7%. In addition, the AC50 under setting [2] was 23.1 µM [falling, single point]. The AC50 under setting [1] was 1.64 µM [falling, full curve]. Turning to `c1ccc2c(c1)c1cccc3ccc4cccc2c4c31`, the cell number change is -1.81%. `Cc1c(C(C)O)nnn1-c1nonc1N` (stereo unspecified): the cell number change was -22.3%. The AC50 under setting [1] is 0.731 µM [falling, full curve]. In the case of `O=[N+]([O-])c1ccc(CSc2ccc(S(=O)(=O)N3CCCCCC3)cn2)cc1`, the cell number change was -1.61%.

In the case of `CC12CCC(C(N)=O)(c3nc4ccccc4nc31)C2(C)C` (stereo unspecified), the cell number change came out at 17.8%. The AC50 under setting [1] is 6.51 µM [falling, single point]. Consider `O=C1c2ccccc2C(=O)N1OCCOCCOCCON1C(=O)c2ccccc2C1=O`, for which the cell number change was -23.5%. For the same compound, the AC50 under setting [2] is 2.59 µM [falling, single point]. For the same compound, the AC50 under setting [1] was 8.2 µM [falling, partial curve]. For the compound `CCN(C(=O)CSc1ncnc2sc(C)c(C)c12)C1CCS(=O)(=O)C1` (stereo unspecified), the concentration at half-maximal activity (AC50) under setting [1] is 29.1 µM [rising, partial curve]. As for `CC(=O)NC(C)c1cc(Cl)c2ccccc2c1O` (stereo unspecified), the cell number change came out at 19.1%. Besides, the AC50 under setting [1] is 0.651 µM [rising, partial curve]. In the case of `O=C(COC(=O)C1CC2CCCC(C1)C2=O)NC(=O)c1ccc(OC(F)F)cc1` (stereo unspecified), the cell number change is 30.5%. As to `c1ccc(CC2CCN(c3nc4ccccc4n4cnnc34)CC2)cc1`, the cell number change is -61.2%. Moreover, under setting [1], the AC50 was 23.1 µM [falling, single point].

`CN1CCN(C(=O)C23CC4CC(C)(CC(C)(C4)C2)C3)CC1`: the cell number change was -6.99%. For the same compound, the AC50 under setting [1] was 18.4 µM [falling, single point]. As for `COC(=O)n1c(=O)oc2cc(S(=O)(=O)N3CCCCC3)ccc21`, the cell number change was -4.63%. With `CCn1c(=O)c2ccccc2n(Cc2cccc([N+](=O)[O-])c2)c1=O`, the cell number change was determined as 29.1%. For the same compound, the AC50 under setting [2] is 1.64 µM [rising, full curve, poor fit]. The AC50 under setting [1] was 29.1 µM [rising, single point]. On to `O=C(Nc1ccc2c(c1)nc1n2CCOC1)c1ccco1`, for which the cell number change turned out to be 15.7%. For the same compound, the AC50 under setting [1] is 9.2 µM [rising, partial curve]. For `CC(=O)N1CCN(c2ccc(NC(=O)c3cccc(Cl)c3Cl)cc2)CC1`, the cell number change came to 7.02%. For the compound `O=C1NC(=S)N/C1=C/c1cc2c(cc1[N+](=O)[O-])OCO2`, the cell number change is 17.6%.

As to `C1=C(CCNCC2CC2)CCCC1`, the cell number change was -13%. Also, the AC50 under setting [1] was 0.58 µM [falling, single point].

With `Cc1ccc(CNc2ccc3c(c2)OCO3)cc1`, the cell number change came out at 165%. Moreover, under setting [2], the AC50 is 18.4 µM [rising, partial curve]. The AC50 under setting [1] is 20.6 µM [rising, partial curve, poor fit]. In the case of `CCOC(=O)c1c(C)n(C)c2ccc(O)c(CN3CCC(C)CC3)c12`, the AC50 under setting [2] is 6.51 µM [rising, single point]. Take `CC1CCCC(C)N1C(=O)CSc1nnc(-c2c[nH]c3ccccc23)o1` (stereo unspecified): the cell number change was -23.7%. The concentration at half-maximal activity (AC50) under setting [1] is 0.82 µM [rising, full curve, poor fit]. Take `Cc1cc(C)c(NC(=O)c2ccc3nccnc3c2)c(C)c1`: the cell number change was -4.82%. For `COc1ccc(CNC(=O)C2CCCN(S(=O)(=O)c3cccc4nsnc34)C2)cc1` (stereo unspecified), the cell number change came to 23%. The AC50 under setting [1] was 5.8 µM [rising, partial curve]. Regarding `COc1ccc(OC)c(Nc2nc(-c3cccs3)cs2)c1`, the cell number change worked out at 22%. Under setting [1], the AC50 was 4.61 µM [rising, partial curve]. `CC(=O)NC(C)c1nc2ccccc2n1CC(=O)N1C(C)CCCC1C` (stereo unspecified): the AC50 under setting [2] is 0.58 µM [falling, partial curve] and the AC50 under setting [1] is 0.231 µM [falling, full curve]. Turning to `CCN(CC)S(=O)(=O)c1ccc(C)c(NC(=O)COc2ccc(Cl)cc2Br)c1`, the cell number change was -38.7%. The AC50 under setting [2] is 4.61 µM [falling, partial curve]. Also, under setting [1], the AC50 is 9.2 µM [falling, partial curve]. In the case of `CCOC(=O)C1CCCCN1C(=O)CCn1nnnc1CN1CCOCC1` (stereo unspecified), the cell number change was -4.28%. As for `COc1cccc(/C=C/C(=O)OCC(=O)N2c3ccccc3CC2C)c1OC` (stereo unspecified), the cell number change was determined as 92.3%. Also, the AC50 under setting [2] was 18.4 µM [rising, partial curve].

For `CCCOc1ccc(CNC(=S)NCc2ccc(OC(C)C)cc2)cc1`, the cell number change turned out to be 1.99%. The AC50 under setting [1] is 0.184 µM [rising, full curve]. Consider `O=c1[nH]c(=O)n(-c2ccc(F)cc2)c2c1C(C(F)(F)F)(C(F)(F)F)N=C(c1ccc(F)cc1)N2`, for which the cell number change is 20.9%. For the same compound, the AC50 under setting [1] was 23.1 µM [falling, partial curve, poor fit]. Consider `O=C1CC(NS(=O)(=O)c2cccnc2)CN1c1cccc(F)c1` (stereo unspecified), for which the cell number change came to 49.9%. Further, the AC50 under setting [2] is 11.6 µM [rising, partial curve]. In addition, the AC50 under setting [1] was 32.6 µM [rising, partial curve]. Regarding `COc1cc(NC(=O)Nc2c(C)n(C)n(-c3ccccc3)c2=O)cc(OC)c1OC`, the cell number change was -8.03%. The AC50 under setting [1] is 6.51 µM [rising, single point]. Consider `O=S(=O)(NCC(c1ccco1)N1CCN(c2ccccc2F)CC1)c1ccc(F)cc1` (stereo unspecified), for which the cell number change is 5.75%. Take `CCOc1nc(NC2CCCCC2)nc(NC(C)(C)C)n1`: the cell number change is -41.3%. Under setting [2], the AC50 was 23.1 µM [falling, single point]. Moreover, the AC50 under setting [1] is 18.4 µM [falling, single point]. For `O=C(NCC(=O)N(c1ccccc1)C(C(=O)NCC1CCCO1)c1ccccc1)c1ccco1` (stereo unspecified), the cell number change was -12.4%. Take `O=C(NC(=S)Nc1ccccc1N1CCOCC1)c1sc2ccccc2c1Cl`: the cell number change is 93.6%. Also, the AC50 under setting [2] was 7.31 µM [falling, single point]. Moreover, under setting [1], the AC50 is 6.51 µM [falling, single point].
